Measured values as given in patent US20230312449A1, “CARBOXYLIC ACID COMPOUND, AND PREPARATION METHOD THEREFOR AND APPLICATION THEREOF” (BOTREE CYCLING SCI & TECH CO., LTD., priority 2020, published 2023).

Assays:
[1] = Back extraction performance of Compound BC195 loaded with metal ions
Method: Compound BC195 was dissolved in Escaid 110 and prepared as a 0.16 mol/L organic phase, and a 0.02 mol/L Ni^2+ sulfate solution was prepared as a feed liquid. The organic phase was saponified to a proportion of 50% with 10 mol/L NaOH aqueous solution, and the saponified organic phase extracted the feed solution with a phase ratio of 1:2, the equilibrium time was 15 min and the temperature was 25° C.
The organic phase loaded with Ni was back-extracted with 1 mol/L sulfuric acid aqueous solution, and during the back extraction, the phase ratio was 15:1, and the back extraction rate was more than 99%.

[2] = Extraction of a mixed metal sulfate solution by saponified extractant organic phase (extraction rate E%, separation coefficient β)
Method: In the embodiments of the present application, the metal ion concentration of the aqueous phase is determined by the inductively coupled plasma optical emission spectroscopy (ICP-OES), and the metal ion concentration of the organic phase is calculated by the difference subtraction method.
The distribution ratio D is a ratio of the metal ion content of the equilibrium organic phase to the metal ion content of the equilibrium aqueous phase after the first extraction (the metal ion concentration of the equilibrium aqueous phase is determined by the inductively coupled plasma optical emission spectroscopy (ICP-OES), and the metal ion concentration of the equilibrium organic phase is calculated by the difference subtraction method), i.e.,
D=Corg/Caq=(C′aq−Caq)/Caq (2)
In equation (2), Corg represents the metal ion concentration of the equilibrium organic phase after the first extraction; Caq represents the metal ion concentration of the equilibrium aqueous phase after the first extraction; C′aq represents the metal ion concentration of the aqueous phase before the first extraction.
The extraction rate E is the percentage of the amount of the extracted substance transferred to organic phase from aqueous phase during the extraction process against the total amount of the extracted substances in the original aqueous phase, i.e.,
E=100%×(C′aq−Caq)/C′aq (3)
In equation (3), Caq represents the metal ion concentration of the equilibrium aqueous phase after the first extraction; C′aq represents the metal ion concentration of the aqueous phase before the first extraction.
The separation coefficient β refers to a ratio of the distribution ratios of two substances to be separated in two phases under certain conditions, which is also known as extraction separation factor.
Compound BC196 was dissolved in a diluent, 260 # solvent oil, and prepared as a 0.6 mol/L organic phase, and a mixed sulfate solution was prepared as an aqueous phase, which contained 0.02 mol/L Cu^2+, Zn^2+, Fe^3+, Al^3+, Cd^2+, Ni^2+, Co^2+, Mn^2+, Ca^2+, Mg^2+ and Li^+. The organic phase was firstly saponified by 11.9 mol/L sodium hydroxide aqueous solution with a saponification rate of 0-70%, the initial pH of the aqueous phase remained unchanged at 2.08, and the aqueous phase was extracted by the organic phase with different saponification degree at a volume ratio of 1:1, the equilibrium time was 15 min and the temperature was 25° C.
After extraction, the extraction rate and equilibrium pH were plotted to obtain the extraction rate E%-pH curve of Compound BC196 for each ion.
This comparative example differs from Performance Example 1 in that Compound BC196 was replaced by Extractant CA12 (commercially available, with an acid content of 98%).

[3] = Back extraction performance of Compound BC196 loaded with metal ions
Method: Compound BC196 was dissolved in dodecane and prepared as a 0.33 mol/L organic phase, and the aqueous phase used a 0.02 mol/L Ni^2+ sulfate solution to be a feed solution. The organic 20 phase was saponified with 9 mol/L ammonia, the saponification proportion was 50%, the saponified organic phase extracted the feed solution with a phase ratio of 1:4, the equilibrium time was 15 min and the temperature was 25° C.
The organic phase loaded with Ni was back-extracted with 1 mol/L sulfuric acid aqueous solution, and during the back extraction, the phase ratio was 10:1, and the back extraction rate was more than 99%.

[4] = Equilibrium pH 4.5, 0.6 mol/L in 260 # solvent oil, O:A 1:1, 15 min, 25° C.

For `CCCCCCC(OCC(CC)CCCC)C(=O)O` (stereo not shown) [Compound BC195], the “Ni content of the organic phase loaded with Ni” value ([1]; 0.16 mol/L in Escaid 110, saponified 50% with 10 mol/L NaOH, 0.02 mol/L Ni^2+ feed, phase ratio 1:2, 15 min, 25° C.) was 0.04 mol/L and the back extraction rate ([1]; 1 mol/L sulfuric acid aqueous solution, phase ratio 15:1) was “more than 99%”.
With `CCCCCC(CC)OC(CCCC)C(=O)O` (stereo not shown) [Compound BC196] the “Separation Coefficient β Cd^2+/Co^2+” value ([2]; Cd^2+, row Co^2+) was 6.01, the “Separation Coefficient β Cd^2+/Li^+” value ([2]; Cd^2+, row Li^+) was 134.77 and the “Separation Coefficient β Cd^2+/Mg^2+” value ([2]; Cd^2+, row Mg^2+) was 194.29. For the same compound, the “Separation Coefficient β Cd^2+/Mn^2+” value ([2]; Cd^2+, row Mn^2+) was 8.36, the “Separation Coefficient β Cd^2+/Ni^2+” value ([2]; Cd^2+, row Ni^2+) was 4.29 and the “Separation Coefficient β Cd^2+/Zn^2+” value ([2]; Cd^2+, row Zn^2+) was 1.94. The “Separation Coefficient β Co^2+/Li^+” value ([2]; Co^2+, row Li^+) was 22.43, the “Separation Coefficient β Co^2+/Mg^2+” value ([2]; Co^2+, row Mg^2+) was 32.33 and the “Separation Coefficient β Co^2+/Mn^2+” value ([2]; Co^2+, row Mn^2+) was 1.39. For the same compound, the “Separation Coefficient β Cu^2+/Al^3+” value ([2]; Cu^2+, row Al^3+) was 53.22, the “Separation Coefficient β Cu^2+/Ca^2+” value ([2]; Cu^2+, row Ca^2+) was 7.57 and the “Separation Coefficient β Cu^2+/Cd^2+” value ([2]; Cu^2+, row Cd^2+) was 6.00. For the same compound, the “Separation Coefficient β Cu^2+/Co^2+” value ([2]; Cu^2+, row Co^2+) was 36.05, the “Separation Coefficient β Cu^2+/Li^+” value ([2]; Cu^2+, row Li^+) was 808.51 and the “Separation Coefficient β Cu^2+/Mg^2+” value ([2]; Cu^2+, row Mg^2+) was 1165.64. The “Separation Coefficient β Cu^2+/Mn^2+” value ([2]; Cu^2+, row Mn^2+) was 50.13, the “Separation Coefficient β Cu^2+/Ni^2+” value ([2]; Cu^2+, row Ni^2+) was 25.71 and the “Separation Coefficient β Cu^2+/Zn^2+” value ([2]; Cu^2+, row Zn^2+) was 11.64. For the same compound, the “Extraction Rate E % Al^3+” value [2, 4] was 26.3%, the “Extraction Rate E % Ca^2+” value [2, 4] was 71.5% and the “Extraction Rate E % Cd^2+” value [2, 4] was 76.0%. The “Extraction Rate E % Co^2+” value [2, 4] was 25-45% and 34.5%, the “Extraction Rate E % Cu^2+” value [2, 4] was 95.0% and the “Extraction Rate E % Fe^3+” value [2, 4] was 90.2%. For the same compound, the “Extraction Rate E % Li^+” value [2, 4] was 2.3%, the “Extraction Rate E % Mn^2+” value [2, 4] was 25-45% and 27.5% and the “Extraction Rate E % Ni^2+” value [2, 4] was 25-45% and 42.5%. The “Separation Coefficient β Ni^2+/Co^2+” value ([2]; Ni^2+, row Co^2+) was 1.40, the “Separation Coefficient β Ni^2+/Li^+” value ([2]; Ni^2+, row Li^+) was 31.45 and the “Separation Coefficient β Ni^2+/Mg^2+” value ([2]; Ni^2+, row Mg^2+) was 45.34. The “Separation Coefficient β Ni^2+/Mn^2+” value ([2]; Ni^2+, row Mn^2+) was 1.95, the “Separation Coefficient β Zn^2+/Co^2+” value ([2]; Zn^2+, row Co^2+) was 3.10 and the “Separation Coefficient β Zn^2+/Li^+” value ([2]; Zn^2+, row Li^+) was 69.447. For the same compound, the “Separation Coefficient β Zn^2+/Mg^2+” value ([2]; Zn^2+, row Mg^2+) was 100.12, the “Separation Coefficient β Zn^2+/Mn^2+” value ([2]; Zn^2+, row Mn^2+) was 4.31 and the “Separation Coefficient β Zn^2+/Ni^2+” value ([2]; Zn^2+, row Ni^2+) was 2.21. The “Separation Coefficient β Al^3+/Cd^2+” value ([2]; column Al^3+, row Cd^2+) was 0.11, the “Separation Coefficient β Al^3+/Co^2+” value ([2]; column Al^3+, row Co^2+) was 0.68 and the “Separation Coefficient β Al^3+/Li^+” value ([2]; column Al^3+, row Li^+) was 15.19. The “Separation Coefficient β Al^3+/Mg^2+” value ([2]; column Al^3+, row Mg^2+) was 21.90, the “Separation Coefficient β Al^3+/Mn^2+” value ([2]; column Al^3+, row Mn^2+) was 0.94 and the “Separation Coefficient β Al^3+/Ni^2+” value ([2]; column Al^3+, row Ni^2+) was 0.48. For the same compound, the “Separation Coefficient β Al^3+/Zn^2+” value ([2]; column Al^3+, row Zn^2+) was 0.22, the “Separation Coefficient β Ca^2+/Al^3+” value ([2]; column Ca^2+, row Al^3+) was 7.03 and the “Separation Coefficient β Ca^2+/Cd^2+” value ([2]; column Ca^2+, row Cd^2+) was 0.79. The “Separation Coefficient β Ca^2+/Co^2+” value ([2]; column Ca^2+, row Co^2+) was 4.76, the “Separation Coefficient β Ca^2+/Li^+” value ([2]; column Ca^2+, row Li^+) was 106.77 and the “Separation Coefficient β Ca^2+/Mg^2+” value ([2]; column Ca^2+, row Mg^2+) was 153.93. For the same compound, the “Separation Coefficient β Ca^2+/Mn^2+” value ([2]; column Ca^2+, row Mn^2+) was 6.62, the “Separation Coefficient β Ca^2+/Ni^2+” value ([2]; column Ca^2+, row Ni^2+) was 3.40 and the “Separation Coefficient β Ca^2+/Zn^2+” value ([2]; column Ca^2+, row Zn^2+) was 1.54. For the same compound, the “Separation Coefficient β Mg^2+/Li^+” value ([2]; column Mg^2+, row Li^+) was 0.69, the “Separation Coefficient β Mn^2+/Li^+” value ([2]; column Mn^2+, row Li^+) was 16.13 and the “Separation Coefficient β Mn^2+/Mg^2+” value ([2]; column Mn^2+, row Mg^2+) was 23.25. For the same compound, the extraction sequence ([2]; from FIG. 1 and Table 1) was “Fe^2+, Cu^2+, Ca^2+, Al^2+, Cd^2+, Zn^2+, Ni^2+, Co^2+, Mn^2+, Mg^2+ and Li^2+”, the “Separation coefficient βNi/Co” value ([2]; pH 4.5) was 1.40 and the “Separation coefficient βNi/Mg” value ([2]; pH 4.5) was 45.34. For the same compound, the “Separation coefficient βNi/Mn” value ([2]; pH 4.5) was 1.95, the “Separation coefficient βNi/Zn” value ([2]; pH 4.5) was 2.21 and the “separation coefficients for each ion higher compared with CA12” value ([2]; same test condition) was 20-30%. For the same compound, the “Ni content of the organic phase loaded with Ni” value ([3]; 0.33 mol/L in dodecane, saponified 50% with 9 mol/L ammonia, 0.02 mol/L Ni^2+ feed, phase ratio 1:4, 15 min, 25° C.) was 0.08 mol/L and the back extraction rate ([3]; 1 mol/L sulfuric acid aqueous solution, phase ratio 10:1) was “more than 99%”.

“And” between values parts separate entries of the source, which are not always exact repeats. Identical values can stand only once.
